Results published in PubChem BioAssay AID485298 (National Center for Advancing Translational Sciences (NCATS), 2010).
Hit rate of the full screen: of about 320,000 compounds, about 740 (0.23%) were called active. Inconclusive means that the source gave no clear call. Such entries were picked first, then a sample of the others. The call rests on the fitted dose curve; in most records, active means well fitted activation curve with a large enough effect; inconclusive means small, poorly fitted or top-dose-only effect; inactive means no such curve, though single readings can be large or run the other way. Potencies of inconclusive entries are doubtful fits and often do not repeat. More than one record can exist for a structure, and the calls need not agree.

Test: qHTS Assay for Small Molecule Inhibitors of Mitochondrial Division or Activators of Mitochondrial Fusion; further: nearly all actives have a fitted effect of over 45% in size
Details: S. cerevisiae fusion-defective mutant growth rescue, CellTiterGlo 48 h; series mostly up to 46.1 µM
Method in brief: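 Read-out: ATP-based luminescence (CellTiterGlo, 10 min ambient) reporting growth of fusion-defective ts yeast after 48 hours at 37C on glycerol/ethanol YPEG medium in the presence of compound.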
Potency means the concentration at half of the fitted maximal effect.

| Structure (SMILES) | Potency |
| --- | --- |
| O=C(c1c[nH]c2ccccc12)N1CCN(c2ccccc2)CC1 | inconclusive: 31.6 µM [activator, single point] |
| Cc1c(O)ccc2c(-c3ccccc3)cc(=O)oc12 | inconclusive: 35.5 µM [activator, single point] |
| CCOc1cc(-c2c(C#N)c(N)nc3c2CCCC3C)ccc1O (stereo not given) | inconclusive: 11.2 µM [activator, partial curve] |
| C=CCN1C(C(=O)c2ccccc2)=C(OC(=O)COc2ccccc2)c2ccccc2S1(=O)=O | inconclusive: 6.31 µM [activator, full curve, poor fit] |
| CCNC(=S)N1CCN(CCN2C(=O)c3cccc4cccc(c34)C2=O)CC1 | inconclusive: 35.5 µM [activator, single point] |
| CCc1nn(CCCC(=O)NCc2ccc(C)cc2)c(=O)c2cc3occc3n12 | inconclusive: 35.5 µM [activator, single point] |
| CN(C)/C=C1/Oc2c(ccc3ccccc23)C1=O | inconclusive: 20 µM [activator, single point] |
| COc1ccc(C2CC(c3ccccc3OC(C)=O)=NN2C(=O)/C=C/c2ccccc2)cc1 (stereo not given) | inconclusive: 10 µM [activator, partial curve] |
| CN(C)c1ccc2c(c1)OC(N)=C(C#N)C2c1cccc(F)c1 (stereo not given) | inconclusive: 15.8 µM [activator, partial curve] |
| CCCCn1c(N)c(-c2nc3ccccc3s2)c2c([N+](=O)[O-])nn(C)c(=O)c21 | inactive |
| CCNC(=S)Nc1scc(-c2ccccc2)c1C(=O)OCC | inconclusive: 31.6 µM [activator, single point] |
| COc1ccc(NS(=O)(=O)c2cccc(-c3nnc(-c4ccccc4)o3)c2)cc1 | active: 12.6 µM |
| COc1cc(-c2nc(=S)[nH][nH]2)cc(OC)c1OC | inactive |
| Cc1cccc(N2C(=O)c3cccc4c(N(C)CCO)ccc(c34)C2=O)c1 | inactive |
| CC(=O)c1ccc(NC(=O)COC(=O)c2c3c(nc4ccccc24)/C(=C\c2cccs2)CCC3)cc1 | inconclusive: 14.1 µM [activator, single point] |
| O=c1[nH]cc(F)c(=O)[nH]1 | active: 2.91 µM |
| COc1cccc(/C=C2\SC(=S)N(C(C(=O)O)c3ccccc3)C2=O)c1OC (stereo not given) | inactive |
| CN(C)c1ccc(C(C(=O)NCc2ccccc2)N(Cc2ccco2)C(=O)c2snc(C(N)=O)c2N)cc1 (stereo not given) | inconclusive: 35.5 µM [activator, single point] |
| N/C(=N\OC(=O)CC1CCCCC1)c1cccc(Br)c1 | inactive |
| CCOc1ccc(C(=O)NCCc2ccc3c(c2)OCCO3)cc1 | inconclusive: 35.5 µM [activator, partial curve] |
| CON(C)c1nc(OCCNC(=O)COc2ccc(Cl)cc2C)nc(N(C)C)n1 | inactive |
| Nc1ccc(S(=O)(=O)Nc2nccc(/C=C/c3ccc(Br)s3)n2)cc1 | inconclusive: 20 µM [activator, partial curve] |
| CN(CC(O)CON=C1c2ccccc2-c2ccccc21)S(=O)(=O)c1ccc(Br)cc1 (stereo not given) | inconclusive: 17.8 µM [activator, single point] |
| Cc1onc(-c2c(F)cccc2Cl)c1C(=O)NCc1ccc(F)cc1 | inconclusive: 39.8 µM [activator, partial curve, poor fit] |

| Structure (SMILES) | Potency |
| --- | --- |
| Cc1ccc(C2=CC(C)(c3ccc(C)cc3)Nc3nc(C(F)(F)F)nn32)cc1 (stereo not given) | inconclusive: 11.2 µM [activator, partial curve] |
| COc1ccccc1-c1sc2ccccc2c1-c1ccccc1OC | inconclusive: 22.4 µM [activator, single point] |
| CCN(CC)C(=O)CSc1nc2cc3c(cc2c(=O)n1CCCCCC(=O)NCc1ccc(OC)cc1)OCO3 | inconclusive: 35.5 µM [activator, single point] |
| CSCC(=O)N1CCCC(CO)(Cc2ccccc2C)C1 (stereo not given) | active: 22.4 µM |
| Cc1ccc2c(c1)COc1c3ccc(C(=O)N4CCOCC4)cc3nn1-2 | inactive |
| CC(Oc1cccc(Cl)c1)C(=O)Nc1ccccc1N1CCCC1 (stereo not given) | inconclusive: 22.4 µM [activator, single point] |
| O=C(c1ccc([N+](=O)[O-])cc1)N1C=CC(C(F)(F)F)=NCC1 | inactive |
| O=[N+]([O-])c1ccccc1/C=N/N1CCN(c2ccncc2S(=O)(=O)N2CCCCC2)CC1 | active: 11.2 µM |
| S=c1[nH]nc(-c2ccc(Cl)cc2Cl)n1-c1ccc2c(c1)OCCO2 | inactive |
| O=C1c2ccccc2NC(c2cccc([N+](=O)[O-])c2)N1CCc1ccccc1 (stereo not given) | inconclusive: 35.5 µM [activator, single point] |
| O=C(CSc1nnnn1Cc1ccccc1)N1CCN(c2ccccc2)CC1 | inactive |
| CCOC(=O)c1ccccc1NS(=O)(=O)c1ccc(C)cc1 | inactive |
| CC(C)c1ccccc1NC(=O)COC(=O)c1c2c(nc3ccccc13)CCN(Cc1ccccc1)C2 | inconclusive: 31.6 µM [activator, single point] |
| C=CCNC(=S)N/N=C(\C)c1ccc(-n2ccnc2)cc1 | inconclusive: 5.01 µM [activator, full curve, poor fit] |
| Cc1ccc(O)c(-c2[nH]ncc2C(=O)c2ccc(Cl)cc2)c1 | inconclusive: 10 µM [activator, partial curve] |
| CCCCCCCC(=O)Nc1ccc(C(=O)N/N=C/c2cccc([N+](=O)[O-])c2)cc1 | inactive |
| COCCNc1nc(-c2cc(C)n(CCc3ccc(OC)cc3)c2C)cs1 | inconclusive: 17.8 µM [activator, single point] |
| O=C1C=C(c2cccc(Br)c2)C[C@@H](c2ccc(F)cc2)C1 | inconclusive: 14.1 µM [activator, single point] |
| Cc1ccc(C)c2sc(N3CCN(C(=O)c4ccc([N+](=O)[O-])o4)CC3)nc12 | active: 20 µM |
| Cc1nn(-c2ccccc2)c(C)c1/C=N/NC(=O)c1cc(-c2ccc(Br)s2)[nH]n1 | inconclusive: 22.4 µM [activator, single point] |
| CCn1nnnc1NCc1ccc(N2CCCC2)cc1 | inactive |
| CCc1nnc(NC(=O)CSc2nnc3c4ccccc4n(C)c3n2)s1 | inactive |
| CC(=O)c1ccc(N2CCN(C(=O)Nc3ccc(F)cc3F)CC2)cc1 | inconclusive: 3.16 µM [activator, partial curve] |
| c1ccn(-c2ccc(-c3ccn[nH]3)cc2)c1 | inconclusive: 22.4 µM [activator, partial curve] |

| Structure (SMILES) | Potency |
| --- | --- |
| CCn1cc([N+](=O)[O-])c(C(=O)N2N=C(c3ccccc3)CC2c2ccc([N+](=O)[O-])cc2)n1 (stereo not given) | inconclusive: 31.6 µM [activator, single point] |
| COC(=O)CSc1nc(N)c(C#N)c(C(C)C)c1C#N | inconclusive: 11.2 µM [activator, partial curve] |
| O=[N+]([O-])c1ccc(N/N=C2/CCCCC2c2ccccn2)cc1 (stereo not given) | inconclusive: 12.6 µM [activator, partial curve] |
| Cc1nn(-c2ccccc2)c(C)c1NC(=O)COc1ccc2ccccc2c1 | inconclusive: 22.4 µM [activator, single point] |
| COc1ccc(NC(=O)CCCC(=O)O)cc1Cl | inconclusive: 25.1 µM [activator, single point] |
| Cc1ccc(-c2cc(C(=O)Nc3cc(C)on3)c3ccccc3n2)c(C)c1 | inconclusive: 28.2 µM [activator, single point] |
| Cc1cccc(NC(=O)CSc2nnc(-c3cc(C)n(-c4ccccc4)c3C)o2)c1C | inconclusive: 17.8 µM [activator, single point] |
| Cc1nc(-n2cc(F)c(=O)[nH]c2=O)c2nc(C)oc2n1 | inactive |
| Cc1c(C(=O)N2CCN(C)CC2)oc2ccc(Br)cc12 | inactive |
| COc1ccc(-c2nc(SC(C)C(=O)NC3CC3)n[nH]2)cc1 (stereo not given) | inactive |
| CCC(c1nnnn1C1CCCC1)N(Cc1cccs1)Cc1cc2cc(C)ccc2[nH]c1=O (stereo not given) | inconclusive: 12.6 µM [activator, partial curve] |
| O=C(Nc1ccc(O)c2c(=O)cc(-c3cccc(Cl)c3)oc12)c1ccccc1Cl | inconclusive: 12.6 µM [activator, partial curve] |
| Cc1ccccc1/C=C/C1=NCCN1 | inconclusive: 13 µM [activator, partial curve] |
| Cc1cc(NC(=O)CSc2nccn2C)no1 | inconclusive: 25.1 µM [activator, single point] |
| CCC(c1ccc(O)cc1)C(CC)c1ccc(O)cc1 (stereo not given) | inconclusive: 17.8 µM [activator, partial curve] |
| CCOC(=O)c1cccc(NC(=O)CCOc2ccccc2)c1 | inconclusive: 15.8 µM [activator, partial curve] |
| Cc1cccc(-n2c(C)nc3cc(C(=O)N4CCOCC4)ccc32)c1 | inactive |
| CCN(CC)S(=O)(=O)c1cccc(C(=O)c2c(C)cc3ccccn23)c1 | inconclusive: 22.4 µM [activator, partial curve] |
| CCCC1CCC(C(=O)Nn2c(C)nc3ccccc3c2=O)CC1 (stereo not given) | inconclusive: 12.6 µM [activator, partial curve] |
| O=C(Nc1ccc(Cl)cn1)C1C(c2ccccc2)C1(Cl)Cl (stereo not given) | inconclusive: 22.4 µM [activator, single point] |
| CCOc1ccc(OCc2ccc(C(=O)N(CC)CC)cc2)cc1 | inconclusive: 11.2 µM [activator, single point] |
| CC(=O)Nc1ccc2c(c1)C(C)(C)C(C)N2C (stereo not given) | inactive |
